Binding data for ten molecules are collected here from publication PMC8511950.

Chains of the proteins cited; added tags and fusions are not shown.
UniProt P16370: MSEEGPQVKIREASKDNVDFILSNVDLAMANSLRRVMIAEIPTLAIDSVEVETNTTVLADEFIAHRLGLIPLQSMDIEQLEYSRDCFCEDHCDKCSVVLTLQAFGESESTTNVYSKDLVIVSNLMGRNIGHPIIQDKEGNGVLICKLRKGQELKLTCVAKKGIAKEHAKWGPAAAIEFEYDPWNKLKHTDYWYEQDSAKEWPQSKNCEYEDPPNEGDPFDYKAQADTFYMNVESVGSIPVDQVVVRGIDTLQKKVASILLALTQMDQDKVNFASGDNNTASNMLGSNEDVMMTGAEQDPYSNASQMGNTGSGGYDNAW

No constants are given. Whether binding was seen depends on the method and setting. Binding seen in cells or lysates may run through a third protein. Here binding means that the protein was enriched with, or labelled near, the bait; the list need not be complete. Where a sequence is shown, tags or fusion partners need not be part of it.

B1: Iwr1 (protein, UniProt Q07532 1-353)
chain: MSTISTTTAPEFIRVKRRRDEDSVQALLIDEGKRVKKQKFIFKLSKTVSSESYQSEQESSTPLLKLAHEDHRHFVLEQRKKSRRDSDDEKSQQRLAAEGSTVDDDGLPPEINQMVNDYLKLNKGVEKTERKKPSRKYFTGDSAKIASLPSLDYVFDIYHLEKIHDDEVARYNNEKNIGFVKIIEHIDLALDEESDPNEARSDDEDSNDENYYQNDYPEDEDDDRSILFGSEGEDIAALGEEIVIGVNKSRFSSWNDDKIQGSNGYHDVEEEYGDLFNRLGGKSDVLKSINSSNFIDLDGQEGEIEISDNEDDSDEGDDIEYPRNEFFPTDVDDPLAHHRDRIFHQLQKKINRS
B2: Ubp14 (protein, UniProt P38237 1-781)
chain: MAEAVLENVNVPAVVSKDECIYCFESPYNEPLALNASPKHSLNICLNCFQATCNRHVPLHIRVTEYACDTIHSNYLTIAKVEKPKQENVEENNNNKKIKLQVIETSEDDTHNTIWSLQRFNGENVPRTVLSKSTDSDISSTALEKIEKILKAKSQDFEDKKNSWVLEISTCPHTENFQIPSKPENTVNLNQCSSCDLTQNLWLCLHCGNIGCGREQIGIDGHSHALDHYRSNNNHPLAIKLGSLSSSTYDLYCYACDDETRFPDNVNLGSALQIYGINIQEKIADEKTLVQLQVEQNENWQFRMVDSSGKEFEKLSASKNYGCGLINLGNSCYLNSVIQSLVNGGVPNWSLDFLGSKFPLDVVYPDNNLKCQWIKLLNAMKCEPELYPNGIKPTTFKKCIGQNHQEFSSNRQQDAMEFLTFLLDLLDKKFFSSSSSGIPNPNDLVRFMMEDRLQCNICGKVKYSYEPTEAIQIPLEENDEPQDMLERIKAYFEGQTIEFKCANCKEKVTANKKPGFKSLPQTLILNPIRIRLQNWIPVKTSNELSLPGLIDRDDMLDVSSYLSQGFDPQTENLLPDEDENRSSFTPNQCSISQLIEMGFTQNASVRALFNTGNQDAESAMNWLFQHMDDPDLNDPFVPPPNVPKKDKREVDEVSLTSMLSMGLNPNLCRKALILNNGDVNRSVEWVFNNMDDDGTFPEPEVPNEEQQQKKDLGYSTAKPYALTAVICHKGNSVHSGHYVVFIRKLVADKWKWVLYNDEKLVAADSIEDMKKNGYIYFYTRC
B3: Tal1 (protein, UniProt P15019 1-335)
chain: MSEPAQKKQKVANNSLEQLKASGTVVVADTGDFGSIAKFQPQDSTTNPSLILAAAKQPTYAKLIDVAVEYGKKHGKTTEEQVENAVDRLLVEFGKEILKIVPGRVSTEVDARLSFDTQATIEKARHIIKLFEQEGVSKERVLIKIASTWEGIQAAKELEEKDGIHCNLTLLFSFVQAVACAEAQVTLISPFVGRILDWYKSSTGKDYKGEADPGVISVKKIYNYYKKYGYKTIVMGASFRSTDEIKNLAGVDYLTISPALLDKLMNSTEPFPRVLDPVSAKKEAGDKISYISDESKFRFDLNEDAMATEKLSEGIRKFSADIVTLFDLIEKKVTA
B4: Set2 (enzyme, UniProt P46995 1-733)
chain: MSKNQSVSASEDEKEILNNNAEGHKPQRLFDQEPDLTEEALTKFENLDDCIYANKRIGTFKNNDFMECDCYEEFSDGVNHACDEDSDCINRLTLIECVNDLCSSCGNDCQNQRFQKKQYAPIAIFKTKHKGYGVRAEQDIEANQFIYEYKGEVIEEMEFRDRLIDYDQRHFKHFYFMMLQNGEFIDATIKGSLARFCNHSCSPNAYVNKWVVKDKLRMGIFAQRKILKGEEITFDYNVDRYGAQAQKCYCEEPNCIGFLGGKTQTDAASLLPQNIADALGVTVSMEKKWLKLKKLSGEPIIKNENENINIEFLQSLEVQPIDSPVDVTKIMSVLLQQDNKIIASKLLKRLFTIDDDSLRHQAIKLHGYTCFSKMLKLFITEQPQVDGKGNETEEDDIKFIKGILDFLLELPKTTRNGIESSQIDNVVKTLPAKFPFLKPNCDELLEKWSKFETYKRITKKDINVAASKMIDLRRVRLPPGWEIIHENGRPLYYNAEQKTKLHYPPSGSSKVFSSRSNTQVNSPSSSGIPKTPGALDSKKHKLSDEEYERKKQKRLEYERIALERAKQEELESLKQKLKLENERKSVLEDIIAEANKQKELQKEEAKKLVEAKEAKRLKRKTVSQSQRLEHNWNKFFASFVPNLIKKNPQSKQFDHENIKQCAKDIVKILTTKELKKDSSRAPPDDLTKGKRHKVKEFINSYMDKIILKKKQKKALALSSASTRMSSPPPSTSS
B5: Utp25 (protein, UniProt P40498 1-721)
chain: MSDSSVREKNDNFRGYRKRGRQELRKIKRSSARTEGGSTETLEDVAEDIDHRSDEDEVSDVDSGDDFDIEDEEGKKEKVYDALLTILKSEHPEPKRRRREADESNKAPAEVGEDEHENTEHGPVDDQLEIENGLLGNHEDDNDDDSSGDEKDIDSEDEQDPFESHFNQVPEKFVDKLSNAFKTKSVKYKSVKGSLSDSESYIYAKPVVIGEEALVESPYRSSSIYSYFLKQRLKVQNGLLDKKTDPLTALQKKLVDPMFQYKDILYEYDSYEKDEDEYRDLYALHVLNHIYKTRDRILKNNQRLQDNPDTEHLDQGFTRPKVLIVVPTREVAYRVVDKIISKSGIDQVDKKGKFYDQFRDDSLPPKSKPKSFQHIFRGNTNDFFVVGLKFTRKAIKLYSNFYQSDIIVCSPLGIQMILENTDKKKRQDDFLSSIELMVIDQLHSIEYQNISHIFTIFDHLNKIPDQQHEADFSRIRMWYINEQAKLFRQTMVFTKYISPAANSLINGRCRNMAGRWKNHKVIGSENSSIGQSGLKIRQIFQRFDIIGNSIIEEPDYRFKFFTSVIIPGIVKSTGYEDGILIYIPDYTDFIRIRNYMKEKTTILFGDINEYSSQRQLNANRSLFQQGRLKVMLYTERLHHYRRYEIKGVKSVVFYKPPNNPEFYNEVVRFIGKNAFLGNTDLNISTVRCIYSKLDGLSLERIVGTKRAAVLSHAQKEIYEFK
B6: Leo1 (protein, UniProt P38439 1-464)
chain: MSSESPQDQPQKEQISNNVGVTTNSTSNEETSRSQDDNVKEVNGNDDTKEEEQEEDAELDDLFGDDNDDDDDDDVKKSETEKSDSDSDEDDEGENINHRSRHRESLGLDDDEAEEQAMYTRKFYGEDANNFSDQDETTHTFKEENVELVRHIIPSKANVNETASHNEIFYARIPNFLTIDPIPFDPPSFEAKVNERASNSASREDQLDDRLIDENTVRWRYSRDKDQHVFKESNTQIVQWSDGTYSLKVGEECTDILVNDTSNTFLTVSHDQQELIQCYEGGEIKKTLMFIPTSTNSKIHQKLSKAVIRRNQRQSKGPGTYIVSMDPEVEKKELERKQSQILRDRRRRQLKEKEKQESPDAAFETGFRKQNSPTTYGASRRNEYEEDDFLVDDDEEEEAAFDDEEDDNEEEEEEEDADEENASRLRNLKREGAAMYREEEEEEKDRSETKRRRVAVIEDDEDED
B7: Toa1 (protein, UniProt P32773 1-286)
chain: MSNAEASRVYEIIVESVVNEVREDFENAGIDEQTLQDLKNIWQKKLTETKVTTFSWDNQFNEGNINGVQNDLNFNLATPGVNSSEFNIKEENTGNEGLILPNINSNNNIPHSGETNINTNTVEATNNSGATLNTNTSGNTNADVTSQPKIEVKPEIELTINNANITTVENIDDESEKKDDEEKEEDVEKTRKEKEQIEQVKLQAKKEKRSALLDTDEVGSELDDSDDDYLISEGEEDGPDENLMLCLYDKVTRTKARWKCSLKDGVVTINRNDYTFQKAQVEAEWV
B8: Toa2 (protein, UniProt P32774 1-122)
chain: MAVPGYYELYRRSTIGNSLVDALDTLISDGRIEASLAMRVLETFDKVVAETLKDNTQSKLTVKGNLDTYGFCDDVWTFIVKNCQVTVEDSHRDASQNGSGDSQSVISVDKLRIVACNSKKSE
B9: Wtm1 (protein, UniProt Q12363 1-437)
chain: MPKKVWKSSTPSTYEHISSLRPKFVSRVDNVLHQRKSLTFSNVVVPDKKNNTLTSSVIYSQGSDIYEIDFAVPLQEAASEPVKDYGDAFEGIENTSLSPKFVYQGETVSKMAYLDKTGETTLLSMSKNGSLAWFKEGIKVPIHIVQELMGPATSYASIHSLTRPGDLPEKDFSLAISDFGISNDTETIVKSQSNGDEEDSILKIIDNAGKPGEILRTVHVPGTTVTHTVRFFDNHIFASCSDDNILRFWDTRTSDKPIWVLGEPKNGKLTSFDCSQVSNNLFVTGFSTGIIKLWDARAAEAATTDLTYRQNGEDPIQNEIANFYHAGGDSVVDVQFSATSSSEFFTVGGTGNIYHWNTDYSLSKYNPDDTIAPPQDATEESQTKSLRFLHKGGSRRSPKQIGRRNTAAWHPVIENLVGTVDDDSLVSIYKPYTEESE
B10: His5 (protein, UniProt P07172 1-385)
chain: MVFDLKRIVRPKIYNLEPYRCARDDFTEGILLDANENAHGPTPVELSKTNLHRYPDPHQLEFKTAMTKYRNKTSSYANDPEVKPLTADNLCLGVGSDESIDAIIRACCVPGKEKILVLPPTYSMYSVCANINDIEVVQCPLTVSDGSFQMDTEAVLTILKNDSLIKLMFVTSPGNPTGAKIKTSLIEKVLQNWDNGLVVVDEAYVDFCGGSTAPLVTKYPNLVTLQTLSKSFGLAGIRLGMTYATAELARILNAMKAPYNISSLASEYALKAVQDSNLKKMEATSKIINEEKMRLLKELTALDYVDDQYVGGLDANFLLIRINGGDNVLAKKLYYQLATQSGVVVRFRGNELGCSGCLRITVGTHEENTHLIKYFKETLYKLANE

The target in the assay is Rpb3 with C-terminal BioTAP tag (S. cerevisiae) (UniProt P16370). The experiment in a line: affinity purification with mass spectrometry; BioTAP-XL two-step purification of Rpb3-BioTAP (IgG beads, then streptavidin agarose) from 1% formaldehyde-cross-linked wildtype and spt6-1004 cells shifted to 37 °C for 80 min; on-bead trypsin digestion, TMT labelling, MS3 quantification; untagged wildtype and spt6-1004 cells as controls; FDR cutoff 0.05.
With B1, the binding entry was “binds”.
In the case of B2, the binding result is listed as “binds”.
In the case of B3, the binding result is recorded as “binds”.
The value for B4 was “binds”; that for B5 was “binds”; that for B6 was “binds”.
The value for B7 was “binds”.
With B8, the binding entry was “binds”.
B9: the binding entry is “binds”.
As for B10, the binding result is “binds”.
